Reference: PubChem BioAssay AID2685 (National Center for Advancing Translational Sciences (NCATS), 2010)
This is one part of the list. Further columns of the screen follow, without active or inactive calls. Most of these compounds were active or inconclusive in the main read-out, so they are no random draw. Potencies come from curve fits of mixed quality, noted in brackets.

Experiment: qHTS Assay for Lipid Storage Modulators in Drosophila S3 Cells;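 on cell number change: cells counted by Cell Tracker Red CMTPX staining in the red channel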
Details: BODIPY lipid droplet fluorescence, 18-24 h; for cell number change: measured here: cell count max response, cells fed with added oleic acid
In short: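 Laser-scanning cytometry quantifies lipid droplet accumulation (500–530 nm total intensity; droplet/cell object ratio) in oleic acid-fed (400 uM added) Drosophila S3 cells treated with a concentration series. 20 uM Triacsin C defined 100% inhibition.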

[1] = measured here: cell number channel AC50, cells fed with added oleic acid
[2] = measured here: lipid fluorescence (Fed channel) AC50, cells fed with added oleic acid

Row | SMILES | cell number change | AC50 [1] | AC50 [2]
1 | O=C(COC(=O)c1cc(Br)ccc1O)NNC(=O)c1ccc(Cl)cc1 | 0.314% | 0.92 µM [falling, partial curve] | 1.3 µM [falling, partial curve]
2 | CC(C)[C@H](NC(=O)C1CCCC1)c1nc2ccccc2[nH]1 | 63.5% | 29.1 µM [rising, single point] | 4.11 µM [rising, single point]
3 | Cc1cc(NS(=O)(=O)c2ccc(NC(=S)NC(=O)c3cccc(S(=O)(=O)N(C)C)c3)cc2)no1 | -1.76% | – | –
4 | O=C(NC1CCCCCC1)c1ccc(S(=O)(=O)NCc2ccco2)cc1 | 57.9% | 20.6 µM [rising, single point] | –
5 | Cc1ccc(/C=[N+](\[O-])c2ccc(N(C)C)cc2)c2nsnc12 | -15.3% | 6.51 µM [rising, single point] | 4.61 µM [falling, single point]
6 | COc1cccc(-c2ccc(NC(=O)C3CCCN(Cc4cc(C)[nH]n4)C3)cc2)c1 (stereo unspecified) | 8.42% | – | 11.6 µM [falling, single point]
7 | Cc1ccc(-n2ncc3c(N4CCC5(CC4)OCCO5)ncnc32)c(C)c1 | -76.1% | 20.6 µM [falling, single point] | –
8 | COc1cccc2c(SCC(=O)N/N=C/c3ccc(O)c(O)c3)cc(C)nc12 | 27.2% | – | 3.66 µM [rising, partial curve]
9 | Cn1nnnc1SCc1cc(=O)n2ccsc2n1 | 6.11% | – | 0.184 µM [rising, full curve, poor fit]
10 | COc1ccc2cc3c(N)nn(C(=O)c4ccc(F)cc4)c3nc2c1 | 14% | – | 0.184 µM [rising, full curve]
11 | CC1=NC(=O)C(N=Nc2ccccc2)N1c1ccccc1 (stereo unspecified) | -35.9% | 20.6 µM [falling, partial curve, poor fit] | 14.6 µM [falling, partial curve, poor fit]
12 | O=C(NCC(=O)N1CCC2(CC1)NCCc1[nH]cnc12)c1ccc(Br)cc1 | -1.98% | – | 0.326 µM [rising, partial curve, poor fit]
13 | CCN(CC)c1ccc(NC(=O)CN(C)Cc2cccs2)cc1 | 15.4% | – | –
14 | O=C1C2CC=C(Cl)CC2C(=O)N1CCCCCCN1C(=O)C2CC=C(Cl)CC2C1=O (stereo unspecified) | -26.7% | – | 0.82 µM [falling, full curve, poor fit]
15 | COc1ccc(C(=O)NCCCNC(=O)c2cnccn2)cc1 | 16.2% | – | 0.13 µM [falling, full curve, poor fit]
16 | CC(C)CC(=O)N1CC(=O)Nc2ccc(F)cc2C1c1ccccc1 (stereo unspecified) | -45% | – | –
17 | COc1ccccc1NC(=O)NN1CCCCC1 | – | – | 0.82 µM [falling, full curve]
18 | COc1cccc(CN2CC(C(=O)NC3CCC(O)CC3)CCC2=O)c1 (stereo unspecified) | 16.3% | – | –
19 | CCOc1ccc(N2CC(C(=O)Nc3ccc(S(=O)(=O)Nc4ncccn4)cc3)CC2=O)cc1 (stereo unspecified) | -31.2% | 6.51 µM [falling, full curve, poor fit] | 5.8 µM [falling, full curve]
20 | Cc1nc2cc(-c3ccc(Br)cc3)[nH]n2c(=O)c1Cl | -22.5% | – | 6.51 µM [rising, single point]

Row | SMILES | cell number change | AC50 [1] | AC50 [2]
21 | CCOc1ccc(Nc2nc(Cc3nnc(SCC(N)=O)o3)cs2)cc1 | 13.5% | – | 3.66 µM [falling, partial curve]
22 | CS(=O)(=O)c1ccc(Cl)c(NC(=O)COC(=O)CNC(=O)c2cccs2)c1 | -7.53% | – | 29.1 µM [rising, single point]
23 | O=C(NCCCN1CCCC1=O)c1sc2ccccc2c1Cl | -53.3% | 8.2 µM [falling, partial curve] | 5.17 µM [falling, partial curve]
24 | CCN1CCCC1CNC(=O)CSCc1nc(-c2ccccc2C)oc1C (stereo unspecified) | 19% | – | 18.4 µM [rising, single point]
25 | CCOC(=O)CCc1c(C)c(C#N)c2nc3ccccc3n2c1-n1ccnc1 | – | 2.31 µM [rising, partial curve] | 2.91 µM [rising, full curve]
26 | COc1ccccc1NCN1C(=O)CCC1=O | 8.38% | – | 29.1 µM [rising, single point]
27 | COc1cc(NC(=O)c2ccc(Cl)cc2)c(OC)cc1Cl | 89.3% | 29.1 µM [rising, single point] | 6.51 µM [rising, partial curve]
28 | COc1ccc(C(=O)Nc2nnc(SCC(=O)NCc3ccco3)s2)c(OC)c1 | 1.39% | – | –
29 | O=C(NC(=S)N1CCN(c2c(Cl)cccc2[N+](=O)[O-])CC1)c1cccs1 | 34.4% | 29.1 µM [rising, single point] | 20.6 µM [rising, single point]
30 | CC(=O)c1c(C)[nH]c(C(=O)OCC(=O)N(Cc2ccccc2)C(C)(C)C)c1C | -10.9% | – | 18.4 µM [falling, single point]
31 | CCCS(=O)(=O)N1CCCC(C(=O)NCC2CCCO2)C1 (stereo unspecified) | -19.6% | 2.91 µM [falling, single point] | –
32 | COc1cc(SC)ccc1C(=O)OCC(=O)NC1CCCC1 | 56.2% | – | –
33 | CC(c1ccccc1)n1c(-c2ccc(C(C)(C)C)cc2)n[nH]c1=S (stereo unspecified) | -37% | 14.6 µM [falling, partial curve, poor fit] | 6.51 µM [falling, single point]
34 | CN(C)CCCn1c(SCC(=O)N2c3ccccc3Sc3ccccc32)nc2ccccc2c1=O | -52.4% | 14.6 µM [falling, single point] | 16.4 µM [falling, single point]
35 | CC1(C)N(OCc2ccccc2)C(=O)C(=O)N(OCc2ccccc2)C1(C)C | -16.6% | – | 11.6 µM [falling, single point]
36 | COc1ccc(CN(C(=O)c2snc(C(N)=O)c2N)C(C(=O)NC2CCCC2)c2ccco2)cc1 (stereo unspecified) | 0.427% | – | 4.11 µM [falling, single point]
37 | Cc1ccc(S(=O)(=O)N2CCN(c3ccccc3)CC2)cc1C | 7.12% | 2.06 µM [rising, partial curve, poor fit] | 10.3 µM [falling, single point]
38 | N#Cc1ccccc1OCC(=O)Nc1cccc(S(=O)(=O)N2CCCC2)c1 | -3.21% | – | 0.731 µM [falling, full curve, poor fit]
39 | CC(Oc1cc(F)ccc1[N+](=O)[O-])C(=O)Nc1ccc(S(=O)(=O)N2CCCC2)cc1 (stereo unspecified) | 8.53% | 6.51 µM [rising, single point] | 3.26 µM [rising, partial curve]
40 | O=C(COC(=O)c1ccc(Cl)c(S(=O)(=O)N2CCc3ccccc3C2)c1)Nc1ncc(Cl)cc1Cl | – | 0.58 µM [falling, single point] | 13 µM [rising, partial curve]

Row | SMILES | cell number change | AC50 [1] | AC50 [2]
41 | N#CC1C(C#N)N2CCCN2C1c1ccc(Br)cc1 (stereo unspecified) | -3.25% | – | 6.51 µM [falling, single point]
42 | CC(=O)c1c(N2CCN(C(=O)C3CCCO3)CC2)nc(=S)n(-c2ccccc2)c1C (stereo unspecified) | 6.72% | – | –
43 | C/C(=N\Nc1ccc(Cl)cc1)c1c(O)cc(C)oc1=O | – | 6.51 µM [rising, single point] | –
44 | COc1ccc(S(=O)(=O)N(C)c2ccc(C(=O)Nc3cccnc3)cc2)cc1 | -23.8% | – | –
45 | Cc1ccccc1C(=O)NC(=S)NCc1ccccc1 | 10.2% | – | 29.1 µM [rising, single point]
46 | Oc1ccc(/C=N/Nc2ccnc3cc(Cl)ccc23)c(O)c1 | – | – | 32.6 µM [falling, partial curve]
47 | O=S(=O)(Nc1ccc(-n2cnnn2)cc1)c1cccc(F)c1 | -3.61% | – | –
48 | C#CCOCCOCCOCCNc1nc(N2CCN(C(=O)[C@H]([C@@H](C)O)n3cc(CCCCN)nn3)CC2)nc(N2CCN(C(=O)[C@H]([C@@H](C)CC)n3cc(CCCN=C(N)N)nn3)CC2)n1 | 0.776% | – | 6.51 µM [falling, single point]
49 | COc1ccc(C(=O)C2CCN(S(=O)(=O)c3ccc4c(c3)OCCO4)CC2)cc1 | 18.2% | – | 0.00517 µM [falling, full curve, poor fit]
50 | O=C(O)c1ccccc1NN=C1CCCCC1 | -0.493% | – | 1.16 µM [falling, full curve, poor fit]
51 | O=C1c2cccc3cc([N+](=O)[O-])cc(c23)C(=O)N1CCN1CCCC1 | -53.3% | 3.66 µM [falling, partial curve] | 6.51 µM [falling, full curve]
52 | O=C(Cc1ccc(F)cc1)OCC(=O)c1cc2ccccc2o1 | 3.61% | – | –
53 | CC1=CC(c2ccccc2)n2nc(N3C(=O)c4ccccc4C3=O)nc2N1 (stereo unspecified) | -146% | 23.1 µM [falling, partial curve] | 23.1 µM [falling, partial curve]
54 | COc1ccc2cc(C(C)C(=O)N3CCC(C(N)=O)CC3)ccc2c1 (stereo unspecified) | 3.15% | – | 29.1 µM [rising, partial curve]
55 | CCc1cc(C(=O)Nc2ccc(S(=O)(=O)NC3=NCCCCC3)cc2)sc1C | -15.8% | – | 16.4 µM [rising, single point]
56 | Cc1nnc(NC(=O)C(C)Sc2nnc(-c3ccco3)n2C)s1 (stereo unspecified) | 8.7% | – | –
57 | Cc1csc(NC(=O)CSC2=NCCS2)n1 | 13.6% | – | 2.06 µM [rising, partial curve]
58 | O=c1[nH]c(/C=C2\C=Nc3ccccc32)c(O)n1Cc1ccccc1F | -33.6% | – | 5.8 µM [falling, full curve]

Some entries already given with just cell number change and AC50 [1].
Row	SMILES	cell number change	AC50 [1]
22	CS(=O)(=O)c1ccc(Cl)c(NC(=O)COC(=O)CNC(=O)c2cccs2)c1	-7.53%	–
23	O=C(NCCCN1CCCC1=O)c1sc2ccccc2c1Cl	-53.3%	8.2 µM [falling, partial curve]
24	CCN1CCCC1CNC(=O)CSCc1nc(-c2ccccc2C)oc1C (stereo unspecified)	19%	–
